According to PubChem BioAssay AID540276 (National Center for Advancing Translational Sciences (NCATS), 2011):
The whole screen tested about 300,000 compounds, of which about 5,400 (1.8%) were called active. This list was built around the results that the source calls inconclusive (neither active nor inactive); the mix of calls is not that of the screen. Calls follow the shape of the full dose curve; tested in HEK293 cells. Potencies beside an inconclusive call are fits to weak or partial responses and may not hold up.

Assay: qHTS for inhibitors of binding or entry into cells for Marburg Virus
Conditions: Marburg virus pseudotyped entry inhibition, cell reporter; series mostly up to 37.8 µM
Potency is read from the fitted curve at half-maximal effect.

Row | Structure (SMILES) | Potency
1 | Cc1ccc(C2=C(CC(=O)O)C(=O)CC2)cc1 | inconclusive: 1.78 µM [activator, partial curve, poor fit]
2 | Cc1cccc(NC(=O)c2ccc3c(c2)OCCO3)c1 | active: 7.94 µM
3 | C/C(=N\NC(=O)c1ccc(O)cc1O)c1cccnc1 | inactive
4 | COC(=O)c1cc2sc(C)cc2n1CC(=O)Nc1ccc(C)c(C)c1 | inconclusive: 8.91 µM [inhibitor, partial curve, poor fit]
5 | O=C(Nc1ccccc1-c1nnn(CC(=O)N2CCOCC2)n1)c1ccccc1F | inconclusive: 16.4 µM [inhibitor, single point]
6 | Cc1cccc(N2CCN(S(=O)(=O)c3cccc4nonc34)CC2C)c1 (centres undefined) | inconclusive: 35.5 µM [inhibitor, single point]
7 | CC1CN(C(=O)CCN2C(=O)c3ccccc3C2=O)CC(C)O1 (centres undefined) | inconclusive: 3.16 µM [activator, full curve, poor fit]
8 | Cc1ccc(S(=O)(=O)N2CCC(=O)N(CCOC(=O)Nc3ccc(C)c(C)c3)CC2)cc1 | inconclusive: 16.4 µM [inhibitor, single point]
9 | O=[N+]([O-])c1ccc(/C=N/NC(=S)Nc2ccccc2C(F)(F)F)o1 | inconclusive: 0.126 µM [inhibitor, full curve, poor fit]
10 | CCOC(=O)C1(Cc2ccc(OC)cc2)CCN(C(=O)c2cc3ccccc3[nH]2)CC1 | inconclusive: 20 µM [inhibitor, single point]
11 | COc1ccc(NC(=O)c2ccc(OC)cc2)cc1 | inconclusive: 8.91 µM [inhibitor, partial curve, poor fit]
12 | Cc1csc(NC(=O)NCC2CCCC(CNC(=O)Nc3nc(C)cs3)C2)n1 (centres undefined) | inconclusive: 35.5 µM [inhibitor, single point]
13 | O=C(Cc1ccccc1)N/N=C/C=C/c1cccc([N+](=O)[O-])c1 | inactive
14 | COc1ccc(OC)c(S(=O)(=O)N2CCC(C(=O)Nc3ccccc3)CC2)c1 | inconclusive: 31.6 µM [activator, single point]
15 | COCCn1c(SCc2nc3sc(C(=O)OC)c(C)c3c(=O)[nH]2)nc2ccccc21 | inconclusive: 31.6 µM [activator, single point]
16 | Cc1ccc(S(=O)(=O)N2CCNC(=O)CC2)cc1 | inconclusive: 3.16 µM [inhibitor, partial curve, poor fit]
17 | Cc1nc2ccccc2nc1N1CCCC1 | inactive
18 | CCCCn1c(SCC(=O)NCc2ccco2)nnc1-c1ccoc1C | inactive
19 | O=C(Nc1ccccc1OC(F)F)C1CCCN1C(=O)c1cccs1 (centres undefined) | inconclusive: 20.6 µM [inhibitor, partial curve, poor fit]

Look-ups from the list:
Entry of CCOC(=O)C1(Cc2ccc(OC)cc2)CCN(C(=O)c2cc3ccccc3[nH]2)CC1 under Potency: inconclusive: 20 µM [inhibitor, single point]
Entry of O=C(Cc1ccccc1)N/N=C/C=C/c1cccc([N+](=O)[O-])c1 under Potency: inactive
